This passage reports binding results from PMC5385413.

Protein sequences, listed by entry. Tags and fused reporters are not part of them.
UniProt P09382: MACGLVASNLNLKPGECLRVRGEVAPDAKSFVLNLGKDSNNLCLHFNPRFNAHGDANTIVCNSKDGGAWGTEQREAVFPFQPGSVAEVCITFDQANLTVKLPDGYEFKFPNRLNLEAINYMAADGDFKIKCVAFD
UniProt Q05397: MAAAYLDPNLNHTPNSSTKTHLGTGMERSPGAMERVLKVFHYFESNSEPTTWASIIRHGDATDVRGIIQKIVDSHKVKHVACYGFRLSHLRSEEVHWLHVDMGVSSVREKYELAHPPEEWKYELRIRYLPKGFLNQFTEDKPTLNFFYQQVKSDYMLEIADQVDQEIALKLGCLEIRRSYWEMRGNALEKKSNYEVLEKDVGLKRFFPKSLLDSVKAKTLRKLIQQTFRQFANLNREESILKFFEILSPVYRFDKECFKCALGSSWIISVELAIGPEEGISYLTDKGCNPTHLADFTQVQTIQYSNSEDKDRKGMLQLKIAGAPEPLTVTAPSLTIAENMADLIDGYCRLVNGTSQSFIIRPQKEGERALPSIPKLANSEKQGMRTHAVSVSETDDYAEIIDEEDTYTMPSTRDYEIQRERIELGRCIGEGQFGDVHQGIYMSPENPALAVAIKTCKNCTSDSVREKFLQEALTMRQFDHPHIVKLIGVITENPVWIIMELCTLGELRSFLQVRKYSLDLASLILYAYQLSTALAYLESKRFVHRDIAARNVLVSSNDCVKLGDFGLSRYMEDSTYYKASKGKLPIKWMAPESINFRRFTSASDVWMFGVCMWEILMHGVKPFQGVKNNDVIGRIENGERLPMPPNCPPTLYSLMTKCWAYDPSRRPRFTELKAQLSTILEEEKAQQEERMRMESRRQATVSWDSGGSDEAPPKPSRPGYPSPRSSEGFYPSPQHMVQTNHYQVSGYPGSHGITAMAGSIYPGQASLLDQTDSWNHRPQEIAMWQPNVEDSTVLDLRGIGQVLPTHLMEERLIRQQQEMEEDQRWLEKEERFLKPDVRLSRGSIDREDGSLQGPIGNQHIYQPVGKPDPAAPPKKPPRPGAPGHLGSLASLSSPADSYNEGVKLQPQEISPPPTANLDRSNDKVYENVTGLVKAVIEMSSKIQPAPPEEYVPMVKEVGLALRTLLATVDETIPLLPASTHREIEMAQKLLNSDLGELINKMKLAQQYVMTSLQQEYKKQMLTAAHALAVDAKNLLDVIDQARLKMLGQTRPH

Assay [1] has as its target V5-galectin-1 (UniProt P09382). Briefly: co-IP; HEK-293T cells transfected with V5-galectin-1, GFP-FAK1 or both; IP with V5 antibody, immunoblot with GFP antibody. A general note: A western blot detects proteins with antibodies after separation by electrophoresis.
For assay [2], the target named is endogenous galectin-1 (human (endogenous in H441)) (UniProt P09382). Briefly: proximity ligation; H441 cells on coverslips, fixed with 4% paraformaldehyde; primary antibodies against FAK1 and galectin-1, 2 h at room temperature; no primary antibody as negative control.

No constants are given. Whether binding was seen depends on the method and setting. Binding seen in cells or lysates may run through a third protein. Some results given as binding are weak or reduced against the parent protein; the word gives no strength.

Consider GFP-FAK1 (from UniProt Q05397 1-1052), for which, in assay [1], the binding result is reported as “binds”.
“endogenous FAK1 (from UniProt Q05397 1-1052)”: the binding entry in assay [2] is “binds”.
